Consider ten molecules from paper PMC9967848.

The chains behind the UniProt entries cited, without tags or fusion partners.
UniProt Q9P2J5: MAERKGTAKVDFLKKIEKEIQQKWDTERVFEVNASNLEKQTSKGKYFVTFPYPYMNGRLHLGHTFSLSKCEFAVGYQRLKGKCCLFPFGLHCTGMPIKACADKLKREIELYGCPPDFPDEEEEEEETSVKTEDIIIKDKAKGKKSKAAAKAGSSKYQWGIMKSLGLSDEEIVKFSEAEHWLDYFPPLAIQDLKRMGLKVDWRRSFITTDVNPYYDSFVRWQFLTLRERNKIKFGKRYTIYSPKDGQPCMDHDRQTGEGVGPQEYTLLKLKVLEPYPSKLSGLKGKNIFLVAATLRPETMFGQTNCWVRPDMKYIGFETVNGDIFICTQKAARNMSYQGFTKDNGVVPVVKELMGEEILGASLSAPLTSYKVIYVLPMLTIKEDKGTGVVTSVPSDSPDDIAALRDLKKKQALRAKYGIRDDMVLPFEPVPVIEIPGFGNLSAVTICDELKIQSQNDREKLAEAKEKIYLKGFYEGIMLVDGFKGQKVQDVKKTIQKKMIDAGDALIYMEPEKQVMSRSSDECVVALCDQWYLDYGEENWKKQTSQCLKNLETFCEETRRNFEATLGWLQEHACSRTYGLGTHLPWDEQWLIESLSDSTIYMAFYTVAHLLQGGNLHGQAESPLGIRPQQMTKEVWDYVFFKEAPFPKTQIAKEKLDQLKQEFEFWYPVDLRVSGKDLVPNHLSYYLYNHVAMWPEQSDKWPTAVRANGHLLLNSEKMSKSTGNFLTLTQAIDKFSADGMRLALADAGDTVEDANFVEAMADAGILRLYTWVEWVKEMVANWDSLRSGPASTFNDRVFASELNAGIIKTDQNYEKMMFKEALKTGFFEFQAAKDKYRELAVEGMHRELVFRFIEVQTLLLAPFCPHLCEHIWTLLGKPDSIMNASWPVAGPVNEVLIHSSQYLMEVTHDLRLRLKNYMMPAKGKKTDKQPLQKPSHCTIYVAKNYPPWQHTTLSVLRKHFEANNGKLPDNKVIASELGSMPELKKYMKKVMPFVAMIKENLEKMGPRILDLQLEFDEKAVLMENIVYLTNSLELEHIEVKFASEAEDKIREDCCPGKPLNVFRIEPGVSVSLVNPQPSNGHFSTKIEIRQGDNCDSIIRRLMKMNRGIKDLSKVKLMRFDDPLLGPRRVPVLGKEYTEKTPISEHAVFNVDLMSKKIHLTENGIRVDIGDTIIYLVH

Results are given in words; binding and its absence hold for the method and conditions named. In cells and extracts the contact can be indirect. Some results given as binding are weak or reduced against the parent protein; the word gives no strength.

B1: glutaminyl-tRNA synthetase (QARS), endogenous (enzyme, UniProt P47897 1-775)
chain: MAALDSLSLFTSLGLSEQKARETLKNSALSAQLREAATQAQQTLGSTIDKATGILLYGLASRLRDTRRLSFLVSYIASKKIHTEPQLSAALEYVRSHPLDPIDTVDFERECGVGVIVTPEQIEEAVEAAINRHRPQLLVERYHFNMGLLMGEARAVLKWADGKMIKNEVDMQVLHLLGPKLEADLEKKFKVAKARLEETDRRTAKDVVENGETADQTLSLMEQLRGEALKFHKPGENYKTPGYVVTPHTMNLLKQHLEITGGQVRTRFPPEPNGILHIGHAKAINFNFGYAKANNGICFLRFDDTNPEKEEAKFFTAICDMVAWLGYTPYKVTYASDYFDQLYAWAVELIRRGLAYVCHQRGEELKGHNTLPSPWRDRPMEESLLLFEAMRKGKFSEGEATLRMKLVMEDGKMDPVAYRVKYTPHHRTGDKWCIYPTYDYTHCLCDSIEHITHSLCTKEFQARRSSYFWLCNALDVYCPVQWEYGRLNLHYAVVSKRKILQLVATGAVRDWDDPRLFTLTALRRRGFPPEAINNFCARVGVTVAQTTMEPHLLEACVRDVLNDTAPRAMAVLESLRVIITNFPAAKSLDIQVPNFPADETKGFHQVPFAPIVFIERTDFKEEPEPGFKRLAWGQPVGLRHTGYVIELQHVVKGPSGCVESLEVTCRRADAGEKPKAFIHWVSQPLMCEVRLYERLFQHKNPEDPTEVPGGFLSDLNLASLHVVDAALVDCSVALAKPFDKFQFERLGYFSVDPDSHQGKLVFNRTVTLKEDPGKV
B2: methionyl-tRNA synthetase (MARS), endogenous (enzyme, UniProt P56192 1-900)
chain: MRLFVSDGVPGCLPVLAAAGRARGRAEVLISTVGPEDCVVPFLTRPKVPVLQLDSGNYLFSTSAICRYFFLLSGWEQDDLTNQWLEWEATELQPALSAALYYLVVQGKKGEDVLGSVRRALTHIDHSLSRQNCPFLAGETESLADIVLWGALYPLLQDPAYLPEELSALHSWFQTLSTQEPCQRAAETVLKQQGVLALRPYLQKQPQPSPAEGRAVTNEPEEEELATLSEEEIAMAVTAWEKGLESLPPLRPQQNPVLPVAGERNVLITSALPYVNNVPHLGNIIGCVLSADVFARYSRLRQWNTLYLCGTDEYGTATETKALEEGLTPQEICDKYHIIHADIYRWFNISFDIFGRTTTPQQTKITQDIFQQLLKRGFVLQDTVEQLRCEHCARFLADRFVEGVCPFCGYEEARGDQCDKCGKLINAVELKKPQCKVCRSCPVVQSSQHLFLDLPKLEKRLEEWLGRTLPGSDWTPNAQFITRSWLRDGLKPRCITRDLKWGTPVPLEGFEDKVFYVWFDATIGYLSITANYTDQWERWWKNPEQVDLYQFMAKDNVPFHSLVFPCSALGAEDNYTLVSHLIATEYLNYEDGKFSKSRGVGVFGDMAQDTGIPADIWRFYLLYIRPEGQDSAFSWTDLLLKNNSELLNNLGNFINRAGMFVSKFFGGYVPEMVLTPDDQRLLAHVTLELQHYHQLLEKVRIRDALRSILTISRHGNQYIQVNEPWKRIKGSEADRQRAGTVTGLAVNIAALLSVMLQPYMPTVSATIQAQLQLPPPACSILLTNFLCTLPAGHQIGTVSPLFQKLENDQIESLRQRFGGGQAKTSPKPAVVETVTTAKPQQIQALMDEVTKQGNIVRELKAQKADKNEVAAEVAKLLDLKKQLAVAEGKPPEAPKGKKKK
B3: ARS-interacting multifunctional protein 1 (AIMP1/p43), endogenous (protein, UniProt Q12904 1-312)
chain: MANNDAVLKRLEQKGAEADQIIEYLKQQVSLLKEKAILQATLREEKKLRVENAKLKKEIEELKQELIQAEIQNGVKQIPFPSGTPLHANSMVSENVIQSTAVTTVSSGTKEQIKGGTGDEKKAKEKIEKKGEKKEKKQQSIAGSADSKPIDVSRLDLRIGCIITARKHPDADSLYVEEVDVGEIAPRTVVSGLVNHVPLEQMQNRMVILLCNLKPAKMRGVLSQAMVMCASSPEKIEILAPPNGSVPGDRITFDAFPGEPDKELNPKKKIWEQIQPDLHTNDECVATYKGVPFEVKGKGVCRAQTMSNSGIK
B4: isoleucyl-tRNA synthetase (IARS), endogenous (enzyme, UniProt P41252 1-1262)
chain: MLQQVPENINFPAEEEKILEFWTEFNCFQECLKQSKHKPKFTFYDGPPFATGLPHYGHILAGTIKDIVTRYAHQSGFHVDRRFGWDCHGLPVEYEIDKTLGIRGPEDVAKMGITEYNNQCRAIVMRYSAEWKSTVSRLGRWIDFDNDYKTLYPQFMESVWWVFKQLYDKGLVYRGVKVMPFSTACNTPLSNFESHQNYKDVQDPSVFVTFPLEEDETVSLVAWTTTPWTLPSNLAVCVNPEMQYVKIKDVARGRLLILMEARLSALYKLESDYEILERFPGAYLKGKKYRPLFDYFLKCKENGAFTVLVDNYVKEEEGTGVVHQAPYFGAEDYRVCMDFNIIRKDSLPVCPVDASGCFTTEVTDFAGQYVKDADKSIIRTLKEQGRLLVATTFTHSYPFCWRSDTPLIYKAVPSWFVRVENMVDQLLRNNDLCYWVPELVREKRFGNWLKDARDWTISRNRYWGTPIPLWVSDDFEEVVCIGSVAELEELSGAKISDLHRESVDHLTIPSRCGKGSLHRISEVFDCWFESGSMPYAQVHYPFENKREFEDAFPADFIAEGIDQTRGWFYTLLVLATALFGQPPFKNVIVNGLVLASDGQKMSKRKKNYPDPVSIIQKYGADALRLYLINSPVVRAENLRFKEEGVRDVLKDVLLPWYNAYRFLIQNVLRLQKEEEIEFLYNENTVRESPNITDRWILSFMQSLIGFFETEMAAYRLYTVVPRLVKFVDILTNWYVRMNRRRLKGENGMEDCVMALETLFSVLLSLCRLMAPYTPFLTELMYQNLKVLIDPVSVQDKDTLSIHYLMLPRVREELIDKKTESAVSQMQSVIELGRVIRDRKTIPIKYPLKEIVVIHQDPEALKDIKSLEKYIIEELNVRKVTLSTDKNKYGIRLRAEPDHMVLGKRLKGAFKAVMTSIKQLSSEELEQFQKTGTIVVEGHELHDEDIRLMYTFDQATGGTAQFEAHSDAQALVLLDVTPDQSMVDEGMAREVINRIQKLRKKCNLVPTDEITVYYKAKSEGTYLNSVIESHTEFIFTTIKAPLKPYPVSPSDKVLIQEKTQLKGSELEITLTRGSSLPGPACAYVNLNICANGSEQGGVLLLENPKGDNRLDLLKLKSVVTSIFGVKNTELAVFHDETEIQNQTDLLSLSGKTLCVTAGSAPSLINSSSTLLCQYINLQLLNAKPQECLMGTVGTLLLENPLGQNGLTHQGLLYEAAKVFGLRSRKLKLFLNETQTQEITEDIPVKTLNMKTVYVSVLPTTADF
B5: ARS-interacting multifunctional protein 3 (AIMP3/p18), endogenous (protein, UniProt O43324 1-174)
chain: MAAAAELSLLEKSLGLSKGNKYSAQGERQIPVLQTNNGPSLTGLTTIAAHLVKQANKEYLLGSTAEEKAIVQQWLEYRVTQVDGHSSKNDIHTLLKDLNSYLEDKVYLTGYNFTLADILLYYGLHRFIVDLTVQEKEKYLNVSRWFCHIQHYPGIRQHLSSVVFIKNRLYTNSH
B6: aspartyl-tRNA synthetase (DARS), endogenous (enzyme, UniProt P14868 1-501)
chain: MPSASASRKSQEKPREIMDAAEDYAKERYGISSMIQSQEKPDRVLVRVRDLTIQKADEVVWVRARVHTSRAKGKQCFLVLRQQQFNVQALVAVGDHASKQMVKFAANINKESIVDVEGVVRKVNQKIGSCTQQDVELHVQKIYVISLAEPRLPLQLDDAVRPEAEGEEEGRATVNQDTRLDNRVIDLRTSTSQAVFRLQSGICHLFRETLINKGFVEIQTPKIISAASEGGANVFTVSYFKNNAYLAQSPQLYKQMCICADFEKVFSIGPVFRAEDSNTHRHLTEFVGLDIEMAFNYHYHEVMEEIADTMVQIFKGLQERFQTEIQTVNKQFPCEPFKFLEPTLRLEYCEALAMLREAGVEMGDEDDLSTPNEKLLGHLVKEKYDTDFYILDKYPLAVRPFYTMPDPRNPKQSNSYDMFMRGEEILSGAQRIHDPQLLTERALHHGIDLEKIKAYIDSFRFGAPPHAGGGIGLERVTMLFLGLHNVRQTSMFPRDPKRLTP
B7: ARS-interacting multifunctional protein 2 (AIMP2/p38), endogenous (protein, UniProt Q13155 1-320)
chain: MPMYQVKPYHGGGAPLRVELPTCMYRLPNVHGRSYGPAPGAGHVQEESNLSLQALESRQDDILKRLYELKAAVDGLSKMIQTPDADLDVTNIIQADEPTTLTTNALDLNSVLGKDYGALKDIVINANPASPPLSLLVLHRLLCEHFRVLSTVHTHSSVKSVPENLLKCFGEQNKKQPRQDYQLGFTLIWKNVPKTQMKFSIQTMCPIEGEGNIARFLFSLFGQKHNAVNATLIDSWVDIAIFQLKEGSSKEKAAVFRSMNSALGKSPWLAGNELTVADVVLWSVLQQIGGCSVTVPANVQRWMRSCENLAPFNTALKLLK
B8: arginyl-tRNA synthetase (RARS), endogenous (enzyme, UniProt P54136 1-660)
chain: MDVLVSECSARLLQQEEEIKSLTAEIDRLKNCGCLGASPNLEQLQEENLKLKYRLNILRKSLQAERNKPTKNMINIISRLQEVFGHAIKAAYPDLENPPLLVTPSQQAKFGDYQCNSAMGISQMLKTKEQKVNPREIAENITKHLPDNECIEKVEIAGPGFINVHLRKDFVSEQLTSLLVNGVQLPALGENKKVIVDFSSPNIAKEMHVGHLRSTIIGESISRLFEFAGYDVLRLNHVGDWGTQFGMLIAHLQDKFPDYLTVSPPIGDLQVFYKESKKRFDTEEEFKKRAYQCVVLLQGKNPDITKAWKLICDVSRQELNKIYDALDVSLIERGESFYQDRMNDIVKEFEDRGFVQVDDGRKIVFVPGCSIPLTIVKSDGGYTYDTSDLAAIKQRLFEEKADMIIYVVDNGQSVHFQTIFAAAQMIGWYDPKVTRVFHAGFGVVLGEDKKKFKTRSGETVRLMDLLGEGLKRSMDKLKEKERDKVLTAEELNAAQTSVAYGCIKYADLSHNRLNDYIFSFDKMLDDRGNTAAYLLYAFTRIRSIARLANIDEEMLQKAARETKILLDHEKEWKLGRCILRFPEILQKILDDLFLHTLCDYIYELATAFTEFYDSCYCVEKDRQTGKILKVNMWRMLLCEAVAAVMAKGFDILGIKPVQRM

This assay has as its target FLAG-tagged HIV-1 MA (HIV-1) (UniProt P12493). The experiment in a line: co-IP.
As for “leucyl-tRNA synthetase (LARS), endogenous (from UniProt Q9P2J5 1-1176) (enzyme)”, the binding result is “binds”.

Take “lysyl-tRNA synthetase (LysRS, KARS), endogenous (from UniProt Q15046 1-597) (enzyme)”: the binding result is on record as “binds”.

As for B1, the binding result is “binds”.

Regarding B2, the binding entry is “binds”.

For B3, the binding result is “binds”.

For B4, the binding result is on record as “binds”.

Consider B5, for which the binding entry is reported as “binds”.

With B6, the binding entry is on record as “binds”.

Turning to B7, the binding entry is on record as “binds”.

Consider B8, for which the binding result was “binds”.
